Results as given in the supplement of paper PMC10849652.
Some of the results follow.

Sequences of proteins named here, by UniProt entry; tags and fusion partners are left off. A change or cut given only in a name is not applied to a line headed by its entry.
UniProt Q6IPR3: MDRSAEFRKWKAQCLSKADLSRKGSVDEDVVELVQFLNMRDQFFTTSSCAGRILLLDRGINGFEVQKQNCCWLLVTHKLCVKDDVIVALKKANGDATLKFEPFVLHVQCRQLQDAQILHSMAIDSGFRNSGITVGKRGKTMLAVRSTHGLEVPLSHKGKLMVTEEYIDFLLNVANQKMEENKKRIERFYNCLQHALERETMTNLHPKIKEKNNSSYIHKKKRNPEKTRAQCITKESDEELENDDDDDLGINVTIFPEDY
UniProt P62253: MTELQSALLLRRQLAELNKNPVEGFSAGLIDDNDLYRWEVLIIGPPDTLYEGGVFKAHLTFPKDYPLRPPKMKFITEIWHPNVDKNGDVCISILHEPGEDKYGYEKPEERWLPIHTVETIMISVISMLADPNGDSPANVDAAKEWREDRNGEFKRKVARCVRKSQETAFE
UniProt Q12792, whole entry, looked up: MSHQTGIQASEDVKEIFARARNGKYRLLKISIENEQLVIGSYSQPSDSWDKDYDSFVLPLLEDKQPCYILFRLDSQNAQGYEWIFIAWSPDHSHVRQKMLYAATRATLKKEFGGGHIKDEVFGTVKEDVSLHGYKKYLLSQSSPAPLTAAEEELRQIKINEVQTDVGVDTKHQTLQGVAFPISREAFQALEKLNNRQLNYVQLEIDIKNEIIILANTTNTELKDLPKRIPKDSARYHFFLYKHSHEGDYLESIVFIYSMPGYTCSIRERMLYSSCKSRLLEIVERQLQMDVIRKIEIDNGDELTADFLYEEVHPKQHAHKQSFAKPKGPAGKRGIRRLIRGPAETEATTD
UniProt Q8N5M4: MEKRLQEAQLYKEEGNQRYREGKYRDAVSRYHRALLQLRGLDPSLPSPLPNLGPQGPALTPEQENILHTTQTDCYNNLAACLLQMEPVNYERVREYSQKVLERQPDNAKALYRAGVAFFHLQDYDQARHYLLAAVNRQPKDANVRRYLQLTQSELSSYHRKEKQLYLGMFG
UniProt Q969M7: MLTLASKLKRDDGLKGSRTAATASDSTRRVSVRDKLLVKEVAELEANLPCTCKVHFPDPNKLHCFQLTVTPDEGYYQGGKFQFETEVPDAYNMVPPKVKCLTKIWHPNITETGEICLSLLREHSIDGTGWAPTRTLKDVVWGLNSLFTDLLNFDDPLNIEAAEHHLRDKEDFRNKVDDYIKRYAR
UniProt Q9H4B7, whole entry, looked up: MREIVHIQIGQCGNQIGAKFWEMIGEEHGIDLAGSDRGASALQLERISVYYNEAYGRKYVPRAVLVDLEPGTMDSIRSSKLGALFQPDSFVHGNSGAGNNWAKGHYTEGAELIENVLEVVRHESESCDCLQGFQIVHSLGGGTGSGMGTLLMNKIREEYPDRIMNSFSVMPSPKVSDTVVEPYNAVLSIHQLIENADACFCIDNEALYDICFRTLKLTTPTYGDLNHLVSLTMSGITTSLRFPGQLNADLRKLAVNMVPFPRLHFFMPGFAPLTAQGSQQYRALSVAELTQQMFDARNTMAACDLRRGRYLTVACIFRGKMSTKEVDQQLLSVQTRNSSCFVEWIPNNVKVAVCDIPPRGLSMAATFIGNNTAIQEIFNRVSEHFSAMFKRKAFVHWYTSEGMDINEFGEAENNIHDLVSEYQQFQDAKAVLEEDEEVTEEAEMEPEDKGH
UniProt Q712K3: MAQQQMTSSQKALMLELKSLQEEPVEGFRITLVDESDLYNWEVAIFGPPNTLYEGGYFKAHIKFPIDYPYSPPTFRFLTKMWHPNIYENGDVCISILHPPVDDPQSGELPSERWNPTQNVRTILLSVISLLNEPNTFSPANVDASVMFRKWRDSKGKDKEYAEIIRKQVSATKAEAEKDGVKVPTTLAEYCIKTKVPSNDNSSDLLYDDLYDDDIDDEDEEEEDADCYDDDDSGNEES
UniProt Q9BSL1: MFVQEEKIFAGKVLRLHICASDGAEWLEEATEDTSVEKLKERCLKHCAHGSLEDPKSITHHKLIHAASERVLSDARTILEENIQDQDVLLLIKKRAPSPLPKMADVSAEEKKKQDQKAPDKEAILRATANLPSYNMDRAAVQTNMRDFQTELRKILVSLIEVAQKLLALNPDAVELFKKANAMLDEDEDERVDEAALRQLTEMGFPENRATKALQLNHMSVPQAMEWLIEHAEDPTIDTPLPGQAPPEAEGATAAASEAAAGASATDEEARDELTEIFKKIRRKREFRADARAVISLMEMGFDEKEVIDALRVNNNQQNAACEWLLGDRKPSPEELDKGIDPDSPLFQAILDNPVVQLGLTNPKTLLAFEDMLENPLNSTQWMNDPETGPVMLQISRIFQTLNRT
UniProt Q13454: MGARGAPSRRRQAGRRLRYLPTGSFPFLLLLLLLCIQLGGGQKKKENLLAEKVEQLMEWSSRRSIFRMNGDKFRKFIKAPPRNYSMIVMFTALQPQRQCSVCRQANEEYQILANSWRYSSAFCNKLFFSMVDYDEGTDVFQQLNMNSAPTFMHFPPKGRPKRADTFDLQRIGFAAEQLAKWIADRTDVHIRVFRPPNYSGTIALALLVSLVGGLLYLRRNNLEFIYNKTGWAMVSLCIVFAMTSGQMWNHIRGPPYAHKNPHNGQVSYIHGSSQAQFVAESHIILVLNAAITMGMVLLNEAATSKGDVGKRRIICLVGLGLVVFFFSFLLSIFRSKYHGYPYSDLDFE
UniProt P23258, whole entry, looked up: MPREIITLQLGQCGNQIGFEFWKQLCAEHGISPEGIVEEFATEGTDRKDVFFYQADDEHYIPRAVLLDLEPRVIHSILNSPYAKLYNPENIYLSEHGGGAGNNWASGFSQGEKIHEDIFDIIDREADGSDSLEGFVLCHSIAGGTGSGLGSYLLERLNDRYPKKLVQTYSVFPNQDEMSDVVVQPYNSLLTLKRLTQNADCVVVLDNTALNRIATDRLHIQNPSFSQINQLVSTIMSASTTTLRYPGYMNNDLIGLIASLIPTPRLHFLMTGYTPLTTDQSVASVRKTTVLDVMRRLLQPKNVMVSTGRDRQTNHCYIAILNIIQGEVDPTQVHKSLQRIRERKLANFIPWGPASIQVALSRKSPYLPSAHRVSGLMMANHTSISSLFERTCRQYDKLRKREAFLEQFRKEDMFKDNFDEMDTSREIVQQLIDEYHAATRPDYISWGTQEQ
UniProt Q8NG11: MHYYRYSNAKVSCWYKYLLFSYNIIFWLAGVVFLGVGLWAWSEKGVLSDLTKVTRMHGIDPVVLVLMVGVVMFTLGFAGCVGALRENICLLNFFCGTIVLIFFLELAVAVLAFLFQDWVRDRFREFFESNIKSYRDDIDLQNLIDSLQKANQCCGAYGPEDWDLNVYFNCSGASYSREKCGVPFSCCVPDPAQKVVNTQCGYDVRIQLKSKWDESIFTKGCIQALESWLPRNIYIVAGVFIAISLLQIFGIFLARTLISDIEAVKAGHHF
UniProt Q13509, whole entry, looked up: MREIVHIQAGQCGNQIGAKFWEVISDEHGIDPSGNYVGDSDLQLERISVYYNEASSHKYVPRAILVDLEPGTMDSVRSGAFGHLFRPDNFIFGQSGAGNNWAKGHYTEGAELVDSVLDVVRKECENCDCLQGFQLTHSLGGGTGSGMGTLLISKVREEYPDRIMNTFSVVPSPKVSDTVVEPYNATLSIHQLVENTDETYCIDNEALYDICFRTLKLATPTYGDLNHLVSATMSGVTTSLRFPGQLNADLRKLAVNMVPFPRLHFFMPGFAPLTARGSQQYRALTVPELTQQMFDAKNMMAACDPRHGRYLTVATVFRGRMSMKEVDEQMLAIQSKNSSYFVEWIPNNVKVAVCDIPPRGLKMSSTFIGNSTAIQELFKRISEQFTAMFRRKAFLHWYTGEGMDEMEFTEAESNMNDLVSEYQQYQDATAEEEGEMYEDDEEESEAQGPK
UniProt P83876: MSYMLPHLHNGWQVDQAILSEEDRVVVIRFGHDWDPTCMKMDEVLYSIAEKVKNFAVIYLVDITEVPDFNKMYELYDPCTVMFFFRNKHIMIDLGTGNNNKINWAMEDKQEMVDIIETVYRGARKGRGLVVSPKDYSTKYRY
UniProt P63146, whole entry, looked up: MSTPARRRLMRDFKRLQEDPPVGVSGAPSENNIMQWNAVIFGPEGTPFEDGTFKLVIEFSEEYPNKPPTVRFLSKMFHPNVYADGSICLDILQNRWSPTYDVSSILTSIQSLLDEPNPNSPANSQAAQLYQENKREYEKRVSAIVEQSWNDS
UniProt Q5T6F2: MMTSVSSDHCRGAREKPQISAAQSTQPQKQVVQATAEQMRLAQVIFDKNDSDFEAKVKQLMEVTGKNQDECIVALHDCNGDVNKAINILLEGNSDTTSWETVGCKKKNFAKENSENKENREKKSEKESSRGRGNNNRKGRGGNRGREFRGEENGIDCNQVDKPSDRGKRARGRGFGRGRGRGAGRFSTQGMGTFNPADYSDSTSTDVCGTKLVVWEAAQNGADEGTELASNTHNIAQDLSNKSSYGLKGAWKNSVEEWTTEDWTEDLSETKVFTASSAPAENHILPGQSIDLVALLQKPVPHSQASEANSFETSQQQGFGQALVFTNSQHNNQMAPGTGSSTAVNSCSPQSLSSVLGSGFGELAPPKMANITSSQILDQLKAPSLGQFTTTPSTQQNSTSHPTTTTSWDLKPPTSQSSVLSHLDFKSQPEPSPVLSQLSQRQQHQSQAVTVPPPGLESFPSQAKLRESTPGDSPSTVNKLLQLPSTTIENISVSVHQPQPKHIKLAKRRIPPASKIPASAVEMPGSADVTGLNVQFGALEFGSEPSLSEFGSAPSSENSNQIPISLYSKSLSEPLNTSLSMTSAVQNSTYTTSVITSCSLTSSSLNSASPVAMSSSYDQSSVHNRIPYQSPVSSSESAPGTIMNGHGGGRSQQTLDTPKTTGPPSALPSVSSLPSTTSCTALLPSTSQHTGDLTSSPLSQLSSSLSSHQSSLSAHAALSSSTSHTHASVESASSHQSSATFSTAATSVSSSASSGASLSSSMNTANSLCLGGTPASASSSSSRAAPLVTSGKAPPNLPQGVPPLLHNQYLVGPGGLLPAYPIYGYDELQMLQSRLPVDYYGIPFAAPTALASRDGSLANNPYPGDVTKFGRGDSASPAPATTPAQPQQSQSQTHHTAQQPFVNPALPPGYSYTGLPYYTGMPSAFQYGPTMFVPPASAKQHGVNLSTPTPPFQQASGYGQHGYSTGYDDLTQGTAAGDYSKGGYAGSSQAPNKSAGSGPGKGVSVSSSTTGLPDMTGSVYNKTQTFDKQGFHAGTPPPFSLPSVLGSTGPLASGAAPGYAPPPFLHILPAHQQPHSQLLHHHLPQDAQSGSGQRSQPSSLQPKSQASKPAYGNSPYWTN
UniProt Q9UBT2: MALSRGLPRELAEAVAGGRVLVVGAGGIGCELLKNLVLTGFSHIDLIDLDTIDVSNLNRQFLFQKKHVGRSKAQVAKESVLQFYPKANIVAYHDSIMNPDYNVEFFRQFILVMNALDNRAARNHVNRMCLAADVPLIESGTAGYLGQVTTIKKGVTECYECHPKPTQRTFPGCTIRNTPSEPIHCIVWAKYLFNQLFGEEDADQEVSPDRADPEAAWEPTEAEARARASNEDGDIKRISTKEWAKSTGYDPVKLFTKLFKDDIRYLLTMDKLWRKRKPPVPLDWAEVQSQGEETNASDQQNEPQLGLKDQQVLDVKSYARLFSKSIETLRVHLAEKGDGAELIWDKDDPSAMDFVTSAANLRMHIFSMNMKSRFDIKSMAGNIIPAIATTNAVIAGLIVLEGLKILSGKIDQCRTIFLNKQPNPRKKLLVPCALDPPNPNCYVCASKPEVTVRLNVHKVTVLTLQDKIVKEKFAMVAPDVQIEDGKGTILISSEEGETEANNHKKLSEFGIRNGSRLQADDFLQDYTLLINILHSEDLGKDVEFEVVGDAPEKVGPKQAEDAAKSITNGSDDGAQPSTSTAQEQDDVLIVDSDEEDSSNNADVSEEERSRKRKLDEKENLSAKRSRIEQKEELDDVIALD

How the values were obtained:
Assay in all cases: log2 fold change, soluble protein after heating vs DMSO (PISA); higher = thermal stabilisation; K562 cells, 10 uM, 30 min; active = over 0.2 and 3.5 SD of the protein, either way, in both replicates (recomputed)
[1] = compound: CS(=O)(=O)c1ccc(-c2cnc(N)c(C(=O)Nc3ccccc3)n2)cc1
Summary of the method: (§1)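 Aliquots of K562 cells (2×10^6 cells/mL) treated with 10 μM compound for 30 min were heated for 3 min over 48°C-58°C. After pooling and extraction in PBS with 0.5% NP-40 at 4°C, soluble protein from a 21,000xg, 90 min spin was quantified by TMTpro 16plex LC-MS/MS with channel sums equalised. Thermal stability is expressed against control samples, from duplicates, as a log2 fold change.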

crizotinib = compound: C[C@@H](Oc1cc(-c2cnn(C3CCNCC3)c2)cnc1N)c1c(Cl)ccc(F)c1Cl [crizotinib]
Summary of the method: as §1

[2] = compound: C[C@@H]1COCCN1C2=NC(=NC(=C2)C3(CC3)S(=O)(=O)C)C4=C5C=CNC5=CC=C4
Summary of the method: as §1

[3] = compound: C[C@H](C1=CC=C(C=C1)C(=O)NC2=C3C=CNC3=NC=C2)N
Summary of the method: as §1

duvelisib = compound: C[C@H](Nc1ncnc2nc[nH]c12)c1cc2cccc(Cl)c2c(=O)n1-c1ccccc1 [duvelisib]
Summary of the method: as §1

gandotinib = compound: Cc1cc(Nc2cc(CN3CCOCC3)c3nc(C)c(Cc4ccc(Cl)cc4F)n3n2)n[nH]1 [gandotinib]
Summary of the method: as §1

tozasertib = compound: Cc1cc(Nc2cc(N3CCN(C)CC3)nc(Sc3ccc(NC(=O)C4CC4)cc3)n2)n[nH]1 [tozasertib]
Summary of the method: as §1

[4] = compound: Cc1cc(SCc2sc(-c3ccc(C(F)(F)F)cc3)nc2C)ccc1OCC(=O)O
Summary of the method: as §1

doramapimod = compound: Cc1ccc(-n2nc(C(C)(C)C)cc2NC(=O)Nc2ccc(OCCN3CCOCC3)c3ccccc23)cc1 [doramapimod]
Summary of the method: as §1

ispinesib = compound: Cc1ccc(C(=O)N(CCCN)[C@@H](c2nc3cc(Cl)ccc3c(=O)n2Cc2ccccc2)C(C)C)cc1 [ispinesib]
Summary of the method: as §1

bafetinib = compound: Cc1ccc(NC(=O)c2ccc(CN3CC[C@H](N(C)C)C3)c(C(F)(F)F)c2)cc1Nc1nccc(-c2cncnc2)n1 [bafetinib]
Summary of the method: as §1

[5] = compound: Cc1cccc(CC(=O)N2CCc3c2ccc(-c2cn(C)c4ncnc(N)c24)c3F)n1
Summary of the method: as §1

nilotinib = compound: Cc1cn(-c2cc(NC(=O)c3ccc(C)c(Nc4nccc(-c5cccnc5)n4)c3)cc(C(F)(F)F)c2)cn1 [nilotinib]
Summary of the method: as §1

[6] = compound: Cc1nc(Nc2n[nH]c3c2CN(C(=O)N[C@H](CN(C)C)c2ccccc2)C3(C)C)c2sccc2n1
Summary of the method: as §1

dasatinib = compound: Cc1nc(Nc2ncc(C(=O)Nc3c(C)cccc3Cl)s2)cc(N2CCN(CCO)CC2)n1 [dasatinib]
Summary of the method: as §1

[7] = compound: Cc1ncc(-c2ccnc(Nc3ccc(S(C)(=O)=O)cc3)n2)n1C(C)C
Summary of the method: as §1

[8] = compound: Cn1cc(-c2ccc3c(c2)CCN3C(=O)Cc2cccc(C(F)(F)F)c2)c2c(N)ncnc21
Summary of the method: as §1

[9] = compound: Cn1cc(-c2ccc3nnc(C(F)(F)c4ccc5ncccc5c4)n3n2)cn1
Summary of the method: as §1

tipifarnib = compound: Cn1cncc1[C@@](N)(c1ccc(Cl)cc1)c1ccc2c(c1)c(-c1cccc(Cl)c1)cc(=O)n2C [tipifarnib]
Summary of the method: as §1

mubritinib = compound: FC(F)(F)c1ccc(/C=C/c2nc(COc3ccc(CCCCn4ccnn4)cc3)co2)cc1 [mubritinib]
Summary of the method: as §1

Measured: log2 fold change

TYW3 (UniProt Q6IPR3)
inactive: [1] 0.009 | crizotinib -0.022 | [2] -0.04 | [3] 0.114 | duvelisib -0.124 | gandotinib 0.04 | tozasertib 0.02 | [4] -0.074 | doramapimod 0.021 | ispinesib -0.146 | bafetinib 0.114 | [5] 0.035 | nilotinib -0.004 | [6] 0.051 | dasatinib 0.015 | [7] 0.009 | [8] -0.037 | [9] -0.051 | tipifarnib 0.031 | mubritinib 0.029

UBE2G1 (UniProt P62253)
inactive: [1] -0.009 | crizotinib -0.011 | [2] 0.076 | [3] -0.13 | duvelisib -0.045 | gandotinib -0.092 | tozasertib 0.05 | [4] 0.014 | doramapimod 0.018 | ispinesib 0.01 | bafetinib -0.05 | [5] -0.049 | nilotinib 0.005 | [6] -0.024 | dasatinib -0.002 | [7] 0.009 | [8] 0.045 | [9] -0.009 | tipifarnib 0 | mubritinib 0.063

TWF1 (UniProt Q12792)
inactive: [1] 0.039 | crizotinib 0 | [2] 0.111 | [3] 0.007 | duvelisib -0.007 | gandotinib -0.047 | tozasertib 0.033 | [4] 0.036 | doramapimod -0.053 | ispinesib 0.142 | bafetinib 0.05 | [5] -0.034 | nilotinib 0.144 | [6] 0.02 | dasatinib -0.005 | [7] 0.025 | [8] 0.048 | [9] -0.06 | tipifarnib -0.085 | mubritinib 0.17

TTC9C (UniProt Q8N5M4)
inactive: [1] -0.022 | crizotinib -0.003 | [2] 0.191 | [3] 0.028 | duvelisib 0.121 | gandotinib -0.015 | tozasertib -0.037 | [4] 0.12 | doramapimod -0.06 | ispinesib -0.008 | bafetinib -0.079 | [5] -0.037 | nilotinib -0.044 | [6] 0.002 | dasatinib -0.178 | [7] 0.029 | [8] 0.162 | [9] -0.018 | tipifarnib -0.037 | mubritinib 0.046

UBE2F isoform 2 (UniProt Q969M7)
inactive: [1] -0.005 | crizotinib 0.012 | [2] 0.043 | [3] -0.05 | duvelisib 0.054 | gandotinib 0.128 | tozasertib -0.048 | [4] 0.026 | doramapimod 0.024 | ispinesib -0.005 | bafetinib 0 | [5] -0.046 | nilotinib 0.035 | [6] -0.004 | dasatinib -0.083 | [7] -0.022 | [8] 0.042 | [9] 0.02 | tipifarnib -0.064 | mubritinib -0.026

Four neighbouring records from above, for reference:
TYW3 (UniProt Q6IPR3)
inactive: [1] 0.009 | crizotinib -0.022 | [2] -0.04 | [3] 0.114 | duvelisib -0.124 | gandotinib 0.04 | tozasertib 0.02 | [4] -0.074 | doramapimod 0.021 | ispinesib -0.146 | bafetinib 0.114 | [5] 0.035 | nilotinib -0.004 | [6] 0.051 | dasatinib 0.015 | [7] 0.009 | [8] -0.037 | [9] -0.051 | tipifarnib 0.031 | mubritinib 0.029

UBE2G1 (UniProt P62253)
inactive: [1] -0.009 | crizotinib -0.011 | [2] 0.076 | [3] -0.13 | duvelisib -0.045 | gandotinib -0.092 | tozasertib 0.05 | [4] 0.014 | doramapimod 0.018 | ispinesib 0.01 | bafetinib -0.05 | [5] -0.049 | nilotinib 0.005 | [6] -0.024 | dasatinib -0.002 | [7] 0.009 | [8] 0.045 | [9] -0.009 | tipifarnib 0 | mubritinib 0.063

TWF1 (UniProt Q12792)
inactive: [1] 0.039 | crizotinib 0 | [2] 0.111 | [3] 0.007 | duvelisib -0.007 | gandotinib -0.047 | tozasertib 0.033 | [4] 0.036 | doramapimod -0.053 | ispinesib 0.142 | bafetinib 0.05 | [5] -0.034 | nilotinib 0.144 | [6] 0.02 | dasatinib -0.005 | [7] 0.025 | [8] 0.048 | [9] -0.06 | tipifarnib -0.085 | mubritinib 0.17

TTC9C (UniProt Q8N5M4)
inactive: [1] -0.022 | crizotinib -0.003 | [2] 0.191 | [3] 0.028 | duvelisib 0.121 | gandotinib -0.015 | tozasertib -0.037 | [4] 0.12 | doramapimod -0.06 | ispinesib -0.008 | bafetinib -0.079 | [5] -0.037 | nilotinib -0.044 | [6] 0.002 | dasatinib -0.178 | [7] 0.029 | [8] 0.162 | [9] -0.018 | tipifarnib -0.037 | mubritinib 0.046

(continued)

TUBB1 (UniProt Q9H4B7)
inactive: [1] 0.001 | crizotinib -0.07 | [2] 0.042 | [3] -0.086 | duvelisib 0.033 | gandotinib -0.03 | tozasertib -0.02 | [4] 0.007 | doramapimod -0.004 | ispinesib 0.114 | bafetinib 0.064 | [5] 0.025 | nilotinib 0.086 | [6] -0.025 | dasatinib -0.059 | [7] 0.02 | [8] 0.103 | [9] 0.019 | tipifarnib -0.041 | mubritinib 0.001

UBE2R2 (UniProt Q712K3)
inactive: [1] 0.027 | crizotinib 0.084 | [2] 0.079 | [3] -0.066 | duvelisib 0.011 | gandotinib -0.04 | tozasertib 0.097 | [4] 0.033 | doramapimod -0.028 | ispinesib 0.042 | bafetinib -0.078 | [5] 0.039 | nilotinib -0.038 | [6] -0.022 | dasatinib -0.063 | [7] -0.032 | [8] 0.012 | [9] -0.017 | tipifarnib -0.016 | mubritinib -0.021

UBAC1 (UniProt Q9BSL1)
inactive: [1] -0.02 | crizotinib 0 | [2] 0.053 | [3] -0.144 | duvelisib 0.03 | gandotinib -0.13 | tozasertib 0.027 | [4] 0.015 | doramapimod -0.01 | ispinesib 0.018 | bafetinib -0.078 | [5] 0.038 | nilotinib -0.046 | [6] -0.057 | dasatinib -0.079 | [7] -0.033 | [8] 0.036 | [9] 0.01 | tipifarnib -0.024 | mubritinib 0.041

TUSC3 isoform 2 (UniProt Q13454)
inactive: [1] -0.032 | crizotinib -0.002 | [2] -0.01 | [3] 0.088 | duvelisib 0.008 | gandotinib 0.118 | tozasertib -0.04 | [4] -0.019 | doramapimod 0.025 | ispinesib -0.062 | bafetinib 0.012 | [5] -0.073 | nilotinib -0.032 | [6] 0.037 | dasatinib 0.038 | [7] -0.016 | [8] -0.086 | [9] -0.011 | tipifarnib 0.048 | mubritinib -0.017

TUBG1 (UniProt P23258)
inactive: [1] 0.008 | crizotinib -0.019 | [2] 0.029 | [3] 0.08 | duvelisib 0.008 | gandotinib -0.014 | tozasertib -0.09 | [4] -0.029 | doramapimod 0.027 | ispinesib -0.018 | bafetinib -0.012 | [5] -0.022 | nilotinib -0.025 | [6] -0.048 | dasatinib 0.008 | [7] -0.025 | [8] 0.036 | [9] -0.062 | tipifarnib 0.047 | mubritinib 0.024

TSPAN14 (UniProt Q8NG11)
inactive: [1] 0.074 | crizotinib 0.137 | [2] 0.131 | [3] -0.084 | duvelisib 0.128 | gandotinib -0.146 | tozasertib -0.053 | [4] -0.035 | doramapimod 0.006 | ispinesib -0.063 | bafetinib 0.072 | [5] -0.154 | nilotinib 0.006 | [6] 0.059 | dasatinib 0.046 | [7] 0.006 | [8] 0.036 | [9] 0.007 | tipifarnib 0.019 | mubritinib 0.011

TUBB3 (UniProt Q13509)
inactive: [1] 0.021 | crizotinib -0.071 | [2] 0.032 | [3] -0.073 | duvelisib 0.004 | gandotinib 0.048 | tozasertib -0.048 | [4] 0.015 | doramapimod -0.003 | ispinesib 0.067 | bafetinib 0.003 | [5] 0.02 | nilotinib 0.053 | [6] -0.008 | dasatinib -0.05 | [7] -0.026 | [8] 0.079 | [9] -0.007 | tipifarnib -0.017 | mubritinib 0.058

TXNL4A (UniProt P83876)
inactive: [1] 0.025 | crizotinib -0.097 | [2] -0.013 | [3] -0.012 | duvelisib -0.017 | gandotinib -0.071 | tozasertib -0.033 | [4] -0.037 | doramapimod 0.006 | ispinesib -0.031 | bafetinib -0.026 | [5] -0.004 | nilotinib -0.018 | [6] 0.014 | dasatinib -0.008 | [7] -0.039 | [8] 0.038 | [9] -0.019 | tipifarnib 0.02 | mubritinib 0.053

UBE2B (UniProt P63146)
inactive: [1] 0.02 | crizotinib 0.046 | [2] 0.059 | [3] 0.019 | duvelisib -0.039 | gandotinib -0.255 | tozasertib -0.028 | [4] 0.173 | doramapimod 0.044 | ispinesib 0.042 | bafetinib -0.051 | [5] -0.171 | nilotinib -0.074 | [6] 0.017 | dasatinib -0.062 | [7] 0.024 | [8] -0.045 | [9] 0.007 | tipifarnib -0.033 | mubritinib -0.02

UBAP2 (UniProt Q5T6F2)
inactive: [1] 0.006 | crizotinib 0.031 | [2] -0.006 | [3] -0.035 | duvelisib -0.015 | gandotinib 0.015 | tozasertib -0.007 | [4] -0.038 | doramapimod -0.002 | ispinesib -0.011 | bafetinib -0.032 | [5] -0.013 | nilotinib 0.012 | [6] 0.016 | dasatinib 0.028 | [7] -0.026 | [8] -0.009 | [9] 0.006 | tipifarnib 0.015 | mubritinib 0.055

UBA2 (UniProt Q9UBT2)
inactive: [1] 0.026 | crizotinib 0.12 | [2] 0.064 | [3] -0.113 | duvelisib 0.038 | gandotinib 0 | tozasertib 0.1 | [4] 0.023 | doramapimod -0.037 | ispinesib 0.089 | bafetinib 0.007 | [5] -0.018 | nilotinib 0.037 | [6] 0.028 | dasatinib -0.013 | [7] 0.009 | [8] 0 | [9] 0.031 | tipifarnib -0.06 | mubritinib 0.163
